Data published in patent US20060084672A1, “Method for modification of y-secretase activity through inhibition of Fkbp13” (The Hospital for Sick Children, priority 2004, published 2006).
For at least one compound, name, drawing or mass did not settle the structure.

Tests used:
Format in all cases: cell-based
γ-secretase = biological target: T1, γ-secretase (Homo sapiens, UniProt P49768); assay: Aβ1-40 sandwich ELISA in Cos-7 cells stably expressing APP C99 and transfected with human PS1; details: APP C99 + human PS1, 1 μm DAPT or 0.5 μm rapamycin o/n
T1 construct: expressed in transfected cells; host or cells: Cos-7 stably expressing APP C99 (pCEP4-SPA4CT-DA)
Experimental: To determine the effect of drug treatment on Psn stability, HEK293 cells were transiently co-transfected with psn and Fkbp13 constructs. 24 hours after transfection, 100 mm dishes of transfected HEK293 cells were treated with 5 μM FK506 (CALBIOCHEM), 1 μM Rapamycin (CALBIOCHEM) or DMSO (control), harvested at various time points and analyzed by Western blotting techniques. To measure Aβ40, Cos-7 cells were transfected with pCEP4-SPA4CT-DA (gift from Dr. Gunter Merdes, ZMBH, University of Heidelberg) that contains an APP^C99 cDNA using lipofectin (Gibco) according to the manufacturers protocol. Cells stably expressing APP^C99 were selected using 300 μg/ml hygromycin and maintained in DMEM medium containing 10% FBS, […] penicillin-streptomycin and 100 μg/ml hygromycin. These cells were then transiently transfected with plasmids carrying human PS1. 48 hours after transfection, cells were starved in serum-free DMEM medium for 2 hours, then treated with 1 μm of the γ-secretase inhibitor DAPT or 0.5 μm of the Fkbp13 inhibitor rapamycin or FK506 respectively, in DMEM medium containing 5% FBS o/n. Cells then were harvested and lysed and the conditioned lysates were used to measure Aβ1-40 by sandwich ELISA as described in (Yan et al. Nature 402:533-537 1999)using 6E10 (Senetek) as the capture antibody and the polyclonal Pan-β-Amyloid (Oncogene) for detection of Aβ40. […]

PEN-2 = PEN-2 protein levels in transfected Drosophilia S2 cells (Western analysis); details: 50 μM FK506 over a 24 hour period
Source text: In order to determine if Fkbp13 can also affect the stability of other components of the γ-secretase complex, Drosophilia S2 cells were transfected with tagged constructs expressing APH-1, PEN-2 or Nct and then examined for the effects of FK506 on protein levels.
cDNA's encoding APH-1, PEN-2 and Nct were subcloned into pAc5.1/V5-HisA or pIB/V5-His TOPO and transiently transfected into Drosophilia S2 cells using cellfectin according to the manufacturer's protocol (Invitrogen). Cells were collected between 24-48 hours for Western analysis using the following antibodies: monoclonal anti-V5 1:5000(Invitrogen), monoclonal anti-HA 1:2000(Roche), monoclonal anti-FLAG M2 1:5000(Sigma) and monoclonal anti-β-tubulin 1:1000 (DSHB).
In contrast, no effect was observed on the levels of either APH-1 or Nct (FIG. 4A). […] Drosophilia S2 cells were transfected with tagged versions of APH-1, PEN-2 or Nct and treated with 50 μM FK506 over a 24 hour period. No effect was observed on the levels of APH-1, Nct or β-tubulin control. Similarly, no effect was observed using either DMSO (control) or the known γ-secretase inhibitor, DAPT.

endogenous PS1 = assay: Effect of FK506 on endogenous PS1 protein levels in HEK293 cells (Western blot); details: HEK293 cells, 0.5, 5 and 50 μM FK506, 24 hours at 37° C., vs DMSO

| SMILES | β-amyloid peptide production (in words) (γ-secretase) | levels of PEN-2 (PEN-2) | endogenous PS1 protein levels (endogenous PS1) |
| --- | --- | --- | --- |
| CO[C@H]1C[C@@H]2CC[C@@H](C)[C@@](O)(O2)C(=O)C(=O)N2CCCC[C@H]2C(=O)O[C@H]([C@H](C)C[C@@H]2CC[C@@H](O)[C@H](OC)C2)CC(=O)[C@H](C)/C=C(\C)[C@@H](O)[C@@H](OC)C(=O)[C@H](C)C[C@H](C)/C=C/C=C/C=C/1C [Rapamycin] | decrease | – | – |
| C=CC[C@@H]1/C=C(\C)C[C@H](C)C[C@H](OC)[C@H]2O[C@@](O)(C(=O)C(=O)N3CCCC[C@H]3C(=O)O[C@H](/C(C)=C/[C@@H]3CC[C@@H](O)[C@H](OC)C3)[C@H](C)[C@@H](O)CC1=O)[C@H](C)C[C@@H]2OC [FK506] | – | dramatically reduced | dose-dependent reduction |
